PubChem BioAssay AID652259 | Drosophila RNAi Screening Center, 2013
The screen tested about 22,000 reagents; shown is an unselected part of those that have a named target and a result. Of all reagents, 233 (1.1%) got an active call. 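Light values are raw, unnormalised plate reads; the ratio scores behind the reporter calls were not deposited.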 Reagents against one gene are numbered here. Names joined by + are all predicted targets of the reagent. Reagent sequences are not shown. Not given: the amount of reagent, the time to read-out, the dose of the treatment.

- Screen: 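Knock-downs that push a Wingless-driven reporter up or down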 (primary screen)
- Cell system: Drosophila clone 8 imaginal disc epithelial cells
- Knock-down reagent: long dsRNA against Drosophila genes
- Conditions: pathway stimulated by co-transfected Wingless expression plasmid
- Measurement: 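Firefly luciferase from a tcf-site Wingless reporter, measured alongside co-transfected Renilla luciferase that tracks transfection; pathway stimulated by a Wingless plasmid; the firefly-to-Renilla ratio is not deposited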
- Direction: firefly reporter light: higher = more Wg reporter light, before normalisation; Renilla control light: higher = more transfected or surviving cells
- Hit rule: 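a knock-down is a candidate when at least two out of four statistical tests show it departing from its plate mean; one test alone signals a weak candidate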
- Meaning of the calls: active = candidate regulator (raises or lowers reporter); inactive = not a candidate

CG15705
- firefly reporter light, replicate 1: 5005
- Renilla control light, replicate 1: 2323
- outcome: inactive

Rac2
- firefly reporter light, replicate 1: 1154
- firefly reporter light, replicate 2: 3929
- Renilla control light, replicate 1: 1091
- Renilla control light, replicate 2: 2276
- outcome: inactive

me31B (maternal expression at 31B)
- firefly reporter light, replicate 1: 13836
- Renilla control light, replicate 1: 1936
- outcome: inactive

CrzR (Corazonin receptor) #1
- firefly reporter light, replicate 1: 4838
- Renilla control light, replicate 1: 2712
- outcome: inactive

CrzR (Corazonin receptor) #2
- firefly reporter light, replicate 1: 8096
- Renilla control light, replicate 1: 2368
- outcome: inactive

CG3748
- firefly reporter light, replicate 1: 2923
- firefly reporter light, replicate 2: 5425
- Renilla control light, replicate 1: 837
- Renilla control light, replicate 2: 2912
- outcome: inactive

CG11883
- firefly reporter light, replicate 1: 9461
- Renilla control light, replicate 1: 3552
- outcome: inactive

CG17959
- firefly reporter light, replicate 1: 15384
- Renilla control light, replicate 1: 11396
- outcome: inactive

CG11267
- firefly reporter light, replicate 1: 9233
- Renilla control light, replicate 1: 4448
- outcome: inactive

NC2beta (Negative Cofactor 2beta)
- firefly reporter light, replicate 1: 23042
- Renilla control light, replicate 1: 2134
- outcome: inactive

Polr1D + DCTN6-p27
- firefly reporter light, replicate 1: 3564
- firefly reporter light, replicate 2: 7772
- Renilla control light, replicate 1: 1056
- Renilla control light, replicate 2: 2946
- outcome: inactive

Btk (Bruton tyrosine kinase) #1
- firefly reporter light, replicate 1: 2428
- firefly reporter light, replicate 2: 6450
- Renilla control light, replicate 1: 909
- Renilla control light, replicate 2: 2739
- outcome: inactive

Btk (Bruton tyrosine kinase) #2
- firefly reporter light, replicate 1: 18941
- Renilla control light, replicate 1: 10529
- outcome: inactive

Btk (Bruton tyrosine kinase) #3
- firefly reporter light, replicate 1: 6.01e5
- firefly reporter light, replicate 2: 6.25e5
- Renilla control light, replicate 1: 2.45e5
- Renilla control light, replicate 2: 1.86e5
- outcome: inactive
